Reference: patent US11155517B2, “4-substituted phenylamine derivatives and their use to protect crops by fighting undesired phytopathogenic micoorganisms” (PI INDUSTRIES LTD., priority 2016, dated 2021)
Some entries share one result that the patent states for a list of compounds. At least one structure is not confirmed: it was looked up by name or label, or the drawing left a doubt.

Columns and labels:
Pyricularia oryzae [1] = format: in vivo; conditions: 500 ppm; rice plants sprayed one day before inoculation
Pyricularia oryzae [2] = format: cell-based; conditions: 300 ppm; seven days, 25° C.

| Compound | Efficacy (% control), disease severity vs untreated check (Pyricularia oryzae [1]) | % control compared to the untreated check (radial growth) (Pyricularia oryzae [2]) |
| --- | --- | --- |
| Cc1cc(N=CN(C)CC2CC2)c(C)cc1Cc1ccccc1F [Compound 87, N-(cyclopropylmethyl)-N-(4-(2-fluorobenzyl)-2,5-dimethylphenyl)-N-methylformimidamide] | 70-100% | more than 75% |
| CCN(C)C=Nc1cc(C)c(Cc2cccc(C)c2C)cc1Cl [Compound 170, N-(2-chloro-4-(2,3-dimethylbenzyl)-5-methylphenyl)-N-ethyl-N-methylformimidamide] |  | more than 75% |
| CCN(C)C=Nc1cc(C)c(Cc2ccc(C)cc2)cc1F [Compound 211, N-ethyl-N-(2-fluoro-5-methyl-4-(4-methylbenzyl)phenyl)-N-methylformimidamide] |  | more than 75% |
| CCN(C)C=Nc1cc(C(F)(F)F)c(Cc2ccc(C)cc2)cc1C1CC1 [Compound 264, N-(2-cyclopropyl-4-(4-methylbenzyl)-5-(trifluoromethyl)phenyl)-N-ethyl-N-methylformimidamide] |  | more than 75% |
